Test results published in article PMC3095566.
No constants are given. Whether binding was seen depends on the method and setting. Binding seen in cells or lysates may run through a third protein. Some results given as binding are weak or reduced against the parent protein; the word gives no strength. Where a sequence is shown, tags or fusion partners need not be part of it.

Sequences of proteins named here, by UniProt entry; tags and fusion partners are left off.
UniProt P62258: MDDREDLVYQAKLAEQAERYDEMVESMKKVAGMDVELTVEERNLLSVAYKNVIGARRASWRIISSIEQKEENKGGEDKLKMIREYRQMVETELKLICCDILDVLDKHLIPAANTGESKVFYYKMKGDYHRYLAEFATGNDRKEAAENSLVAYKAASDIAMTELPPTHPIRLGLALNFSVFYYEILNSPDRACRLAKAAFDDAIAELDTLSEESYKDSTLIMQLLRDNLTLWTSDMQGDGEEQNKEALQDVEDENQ

Target: T1, FLAG-tagged KRT23 (UniProt Q9C075)
T1 sequence: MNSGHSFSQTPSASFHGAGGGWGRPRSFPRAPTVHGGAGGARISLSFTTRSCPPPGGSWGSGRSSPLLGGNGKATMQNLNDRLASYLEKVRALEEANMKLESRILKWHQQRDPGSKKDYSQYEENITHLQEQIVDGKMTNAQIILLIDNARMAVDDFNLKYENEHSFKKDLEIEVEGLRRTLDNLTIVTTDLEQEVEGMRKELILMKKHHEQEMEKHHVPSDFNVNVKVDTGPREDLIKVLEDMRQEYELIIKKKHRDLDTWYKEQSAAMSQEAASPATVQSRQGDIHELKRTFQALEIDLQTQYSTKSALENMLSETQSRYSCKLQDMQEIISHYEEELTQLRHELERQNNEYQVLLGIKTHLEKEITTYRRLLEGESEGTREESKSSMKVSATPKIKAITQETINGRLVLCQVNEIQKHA
Assay: co-IP; HEK 293T cells transfected with Flag-KRT23 and/or VSV-G-14-3-3ε, lysed in RIPA buffer; precipitation with ANTI-FLAG M2-affinity agarose overnight at 4°C; immunoblot

Question: “VSV-G-tagged 14-3-3ε (from UniProt P62258 1-255)” was tested. Which binding did it give?
Answer: binds
